Data as given in PubChem BioAssay AID504804 (Drosophila RNAi Screening Center, 2011).

- Assay: 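Knock-downs shielding fly cells from apoptosis caused by DNA damage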 (primary screen)
- System: Drosophila Kc cells
- Reagent: long dsRNA against Drosophila genes, 0.5 µg dsRNA per well
- Duration: 96 h (48 h knock-down, then 48 h drug)
- Conditions: doxorubicin 5 µg/ml for 48 h, added 48 h after dsRNA
- Measurement: 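Viability measured as cellular ATP by luminescence after 48 h knock-down then 48 h doxorubicin at 5 µg/ml; unnormalised plate counts for each replicate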
- Scale: raw ATP luminescence: higher = more viable cells, protection from doxorubicin
- Call rule: 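z-score of 2 or more over plate mean in both duplicates, retained only when retests and separate dsRNAs confirm the protection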
The deposit covers about 19,000 reagents; this is an unselected part of those with a known target gene and a result. Of all reagents, 47 (0.25%) are marked active. 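Signals are raw, not normalised; exact z-scores behind calls not deposited; actives needed confirmation, so some wells reaching 2 SD are inactive.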 Names joined by + are all predicted targets of the reagent.

target | dsRNA | SD above plate mean | raw ATP luminescence, replicate 1 | raw ATP luminescence, replicate 2 | Outcome
Sou (Souji) | DRSC04356 | – | 61970 | 63610 | inactive
CG5002 | DRSC06911 | – | 64640 | 56347 | inactive
RNF220 (ring finger protein 220) | DRSC15652 | – | 46257 | 38803 | inactive
Brd (Bearded) | DRSC09685 | 2 to 3 SD above plate mean | 94253 | 1.02e5 | inactive
CG17129 | DRSC08508 | – | 81820 | 62273 | inactive
CG9284 (retired record) | DRSC03899 | – | 55153 | 43960 | inactive
CG9284 (retired record) | DRSC04536 | – | 86153 | 65147 | inactive
CG42507 + Trl | DRSC09325 | – | 65287 | 72763 | inactive
CG42507 + Trl | DRSC11308 | – | 9903 | 10050 | inactive
Hers (Histone gene-specific Epigenetic Repressor in late S phase) | DRSC19676 | – | 3.37e5 | 3.33e5 | inactive
CG31076 | DRSC16017 | – | 52740 | 50700 | inactive
mst (misato) | DRSC20582 | – | 3.23e5 | 2.71e5 | inactive
Atg1 (Autophagy-related 1) | DRSC09809 | – | 41057 | 44280 | inactive
Atg1 (Autophagy-related 1) | DRSC09810 | – | 89677 | 83740 | inactive
IFT54 (Intraflagellar transport 54) | DRSC15469 | – | 83250 | 49580 | inactive
CG2926 | DRSC12321 | – | 60847 | 26703 | inactive
slo (slowpoke) | DRSC17057 | – | 50560 | 45970 | inactive
Obp56i (Odorant-binding protein 56i) | DRSC05812 | – | 1.04e5 | 1.04e5 | inactive
CG32264 | DRSC08061 | – | 33607 | 1.29e5 | inactive
CG32264 | DRSC08169 | – | 39087 | 45147 | inactive
CG32264 | DRSC08285 | – | 2.22e5 | 2.74e5 | inactive
Naxd (NAD(P)HX dehydratase) | DRSC09722 | – | 18377 | 24420 | inactive
CG7333 | DRSC16229 | – | 58930 | 65830 | inactive
tld (tolloid) | DRSC17084 | – | 53040 | 59070 | inactive
CG3902 | DRSC10387 | – | 1.04e5 | 72870 | inactive
CG2082 | DRSC12125 | – | 75660 | 25463 | inactive
CG11619 | DRSC09849 | – | 75323 | 55360 | inactive
Or42a (Odorant receptor 42a) | DRSC04912 | – | 46707 | 53283 | inactive
Ald2 (Aldolase 2) | DRSC15799 | – | 75120 | 70860 | inactive
Cpr11A (Cuticular protein 11A) | DRSC19861 | – | 2.86e5 | 2.66e5 | inactive
CG17024 (retired record) | DRSC02562 | – | 93040 | 75730 | inactive
CG31855 | DRSC02968 | – | 57577 | 65693 | inactive
meso18E | DRSC20351 | – | 1.93e5 | 2.73e5 | inactive
CG13711 | DRSC08320 | – | 84620 | 76197 | inactive
TfAP-2 (Transcription factor AP-2) | DRSC11601 | – | 58977 | 72770 | inactive
spdo (sanpodo) | DRSC13988 | – | 2.77e5 | 2.48e5 | inactive
CG5984 | DRSC15930 | – | 62090 | 46380 | inactive
CG31688 + CG31687 | DRSC02116 | – | 48040 | 55443 | inactive
Phax (Phosphorylated adaptor for RNA export) | DRSC07066 | – | 73290 | 92937 | inactive
Elovl7 (ELOVL fatty acid elongase 7) | DRSC15452 | – | 72997 | 49510 | inactive
kek2 (kekkon 2) | DRSC03552 | – | 35990 | 58237 | inactive
CG17304 (retired record) | DRSC15222 | – | 31860 | 34690 | inactive
CG14323 | DRSC14802 | – | 1.06e5 | 87040 | inactive
CheB98a (Chemosensory protein A 98a) | DRSC14882 | – | 44660 | 33830 | inactive
GluClalpha (Glutamate-gated chloride channel subunit alpha) | DRSC16680 | – | 64860 | 53200 | inactive
CG6656 | DRSC16085 | – | 42730 | 45180 | inactive
Obp59a (Odorant-binding protein 59a) | DRSC04160 | – | 51190 | 49453 | inactive
qm (quemao) | DRSC11386 | – | 83717 | 80177 | inactive
CG12486 (retired record) | DRSC09888 | – | 85110 | 60397 | inactive
Sfxn1-3 (Sideroflexin 1/3) | DRSC12183 | – | 73197 | 60070 | inactive
Trmt112 (tRNA methyltransferase subunit 11-2) | DRSC11685 | – | 92190 | 70677 | inactive
casp (caspar) | DRSC07164 | – | 55003 | 58853 | inactive
Lamtor3 (Late endosomal/lysosomal adaptor, MAPK and MTOR activator 3) | DRSC02815 | – | 68247 | 72597 | inactive
CG4839 | DRSC02783 | – | 93363 | 61253 | inactive
CG4839 | DRSC02784 | – | 42693 | 63510 | inactive
CG30432 | DRSC04833 | – | 86667 | 91763 | inactive
CCDC53 (Coiled-coil domain containing 53) | DRSC03056 | – | 39183 | 85767 | inactive
uzip (unzipped) | DRSC04722 | – | 73320 | 68250 | inactive
CG31517 | DRSC13010 | – | 2.14e5 | 2.11e5 | inactive
CG3842 | DRSC18326 | – | 35910 | 42830 | inactive
Swip-1 (Swiprosin-1) | DRSC02083 | – | 74620 | 63967 | inactive
Swip-1 (Swiprosin-1) | DRSC02084 | – | 63067 | 77280 | inactive
Torsin | DRSC18570 | – | 1.57e5 | 1.57e5 | inactive
CG15368 | DRSC18040 | – | 2.67e5 | 2.33e5 | inactive
ssp6 (short spindle 6) | DRSC08791 | – | 1.52e5 | 1.71e5 | inactive
ssp6 (short spindle 6) | DRSC10677 | – | 74667 | 80917 | inactive
Adk3 (Adenosine kinase 3) | DRSC05917 | – | 79960 | 63160 | inactive
Lip3 (Lipase 3) | DRSC16727 | – | 81790 | 83160 | inactive
CG40045 | DRSC21232 | – | 2.10e5 | 2.25e5 | inactive
Ptr (Patched-related) | DRSC04852 | – | 33360 | 43850 | inactive
sad (shadow) | DRSC16630 | – | 57437 | 52057 | inactive
CG1494 | DRSC20509 | – | 3.08e5 | 3.04e5 | inactive
CG13561 | DRSC04199 | – | 36773 | 42503 | inactive
Pex13 (Peroxin 13) | DRSC06877 | – | 87990 | 76380 | inactive
CG42531 | DRSC05318 | – | 91723 | 95740 | inactive
Nop17l (Nop17 like) | DRSC06556 | – | 60857 | 58890 | inactive
Schip1 (Schwannomin interacting protein 1) | DRSC02851 | – | 37610 | 74807 | inactive
CG5726 | DRSC06946 | – | 38280 | 51883 | inactive
CG9903 | DRSC20213 | – | 2.54e5 | 2.36e5 | inactive
CG1213 | DRSC12191 | – | 58497 | 58500 | inactive
CG15773 | DRSC18079 | – | 43210 | 43800 | inactive
lap (like-AP180) | DRSC12628 | – | 52863 | 25120 | inactive
CG34231 | DRSC05323 | – | 73313 | 1.01e5 | inactive
Dnaaf4 (Dynein axonemal assembly factor 4) | DRSC02405 | – | 47870 | 70653 | inactive
CG4364 | DRSC02742 | – | 94980 | 78103 | inactive
SmydA-8 (SET and MYND domain containing, arthropod-specific, member 8) | DRSC18797 | – | 27140 | 36160 | inactive
Pcd (pterin-4a-carbinolamine dehydratase) | DRSC16785 | – | 47420 | 44970 | inactive
CG30058 + CG34235 + CG34312 | DRSC05401 | – | 79867 | 1.06e5 | inactive
BI-1 (Bax Inhibitor-1) | DRSC10782 | – | 33297 | 28693 | inactive
PK2-R2 (Pyrokinin 2 receptor 2) | DRSC16448 | – | 88910 | 88140 | inactive
Fitm (Fat storage inducing transmembrane protein) | DRSC09772 | – | 40177 | 40063 | inactive
CG6428 | DRSC18402 | – | 28250 | 41530 | inactive
Sap-r (Saposin-related) | DRSC16849 | – | 1.77e5 | 1.62e5 | inactive
CG30283 | DRSC04071 | – | 57473 | 51263 | inactive
CG17122 | DRSC10245 | – | 73957 | 64557 | inactive
CG12780 | DRSC06169 | – | 42497 | 77853 | inactive
CG3225 | DRSC00578 | – | 1.15e5 | 95873 | inactive
CG12898 | DRSC06213 | – | 52797 | 90237 | inactive
Act57B (Actin 57B) | DRSC04042 | – | 83417 | 75843 | inactive
Chs2 (Chitin synthase 2) | DRSC11830 | – | 66837 | 52817 | inactive
Npc2f (Niemann-Pick type C-2f) | DRSC15980 | – | 53247 | 51943 | inactive
CG33099 | DRSC15774 | – | 47517 | 52433 | inactive
CG7017 | DRSC10762 | – | 55600 | 57063 | inactive
CG17593 | DRSC00504 | – | 23260 | 23177 | inactive
Dcps (Decapping enzyme, scavenger) | DRSC12299 | – | 72407 | 26053 | inactive
CG8565 | DRSC20112 | – | 3.63e5 | 3.21e5 | inactive
CG14186 | DRSC10185 | – | 20433 | 19323 | inactive

Reformatted: 16 of the entries above.
target,dsRNA,SD above plate mean,"raw ATP luminescence, replicate 1","raw ATP luminescence, replicate 2",Outcome
CG34231,DRSC05323,,73313,1.01e5,inactive
Dnaaf4 (Dynein axonemal assembly factor 4),DRSC02405,,47870,70653,inactive
CG4364,DRSC02742,,94980,78103,inactive
"SmydA-8 (SET and MYND domain containing, arthropod-specific, member 8)",DRSC18797,,27140,36160,inactive
Pcd (pterin-4a-carbinolamine dehydratase),DRSC16785,,47420,44970,inactive
CG30058 + CG34235 + CG34312,DRSC05401,,79867,1.06e5,inactive
BI-1 (Bax Inhibitor-1),DRSC10782,,33297,28693,inactive
PK2-R2 (Pyrokinin 2 receptor 2),DRSC16448,,88910,88140,inactive
Fitm (Fat storage inducing transmembrane protein),DRSC09772,,40177,40063,inactive
CG6428,DRSC18402,,28250,41530,inactive
Sap-r (Saposin-related),DRSC16849,,1.77e5,1.62e5,inactive
CG30283,DRSC04071,,57473,51263,inactive
CG17122,DRSC10245,,73957,64557,inactive
CG12780,DRSC06169,,42497,77853,inactive
CG3225,DRSC00578,,1.15e5,95873,inactive
CG12898,DRSC06213,,52797,90237,inactive
